No constants are given. Whether binding was seen depends on the method and setting. Binding seen in cells or lysates may run through a third protein. A result given as binding can be weak or reduced; the word gives no strength.

Sequences of proteins named here, by UniProt entry; tags and fusion partners are left off. A change or cut given only in a name is not applied to a line headed by its entry.
UniProt Q9QXK9: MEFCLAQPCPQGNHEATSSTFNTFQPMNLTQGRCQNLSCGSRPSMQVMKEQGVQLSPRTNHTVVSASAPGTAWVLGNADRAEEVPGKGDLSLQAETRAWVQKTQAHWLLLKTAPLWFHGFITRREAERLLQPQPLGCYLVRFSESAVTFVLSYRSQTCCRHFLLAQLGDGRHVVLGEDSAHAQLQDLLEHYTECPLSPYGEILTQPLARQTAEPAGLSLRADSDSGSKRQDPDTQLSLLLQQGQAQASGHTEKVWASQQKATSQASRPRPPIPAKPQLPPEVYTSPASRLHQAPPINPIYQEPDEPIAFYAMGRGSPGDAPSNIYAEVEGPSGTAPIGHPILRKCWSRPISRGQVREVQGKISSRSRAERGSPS

Test [1] concerns the target T1, MEKK2 (human (endogenous in HeLa)) (UniProt Q9Y2U5).
T1 sequence: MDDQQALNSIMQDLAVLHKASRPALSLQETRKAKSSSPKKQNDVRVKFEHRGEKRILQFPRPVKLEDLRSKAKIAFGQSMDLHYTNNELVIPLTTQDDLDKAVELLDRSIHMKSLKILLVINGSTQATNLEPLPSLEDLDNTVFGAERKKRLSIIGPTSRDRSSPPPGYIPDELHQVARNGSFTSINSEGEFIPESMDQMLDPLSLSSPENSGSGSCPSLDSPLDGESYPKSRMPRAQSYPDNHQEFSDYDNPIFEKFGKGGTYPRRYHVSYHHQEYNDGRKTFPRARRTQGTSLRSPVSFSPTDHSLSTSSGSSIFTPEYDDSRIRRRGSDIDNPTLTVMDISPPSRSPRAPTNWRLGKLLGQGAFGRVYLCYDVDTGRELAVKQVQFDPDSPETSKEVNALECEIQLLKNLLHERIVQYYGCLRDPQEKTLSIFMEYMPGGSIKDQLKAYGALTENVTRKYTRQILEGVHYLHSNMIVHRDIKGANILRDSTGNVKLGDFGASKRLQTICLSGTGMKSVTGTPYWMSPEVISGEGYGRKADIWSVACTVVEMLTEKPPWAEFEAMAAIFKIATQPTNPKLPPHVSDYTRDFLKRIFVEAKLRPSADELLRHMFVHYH
As to the kind of experiment: pull-down; in vitro binding assay: MEKK2 immunoprecipitated from HeLa lysates (with or without EGF), washed, incubated overnight with 2 µg GST-Lad1 in 50 mM β-glycerophosphate, 100 mM NaCl, 1 mM DTT with various calcium concentrations; bound GST-Lad1 by anti Lad1 blot; binding weak without or at low calcium, elevated at 0.5–1 µM, reduced above 1 µM; both purified.

The target of test [2] is GFP-Lad1 (1–366) (UniProt Q9QXK9). The test is described as follows: co-IP; as the GFP-Lad1 co-IP, cells pretreated with BAPTA-AM (15 µM, 15 min) before EGF.
For test [3] the target is unchanged. The test is described as follows: co-IP; GFP-Lad1 transfected HeLa cells; anti GFP Ab precipitates, endogenous MEKK2 by anti MEKK2 blot; resting cells, EGF (20 ng/ml) time course, ionomycin (1 µM) pretreatment.

Consider GST-Lad1 (from UniProt Q9QXK9-2), for which the binding result in test [1] is reported as “binds”.

B1: MEKK2 (enzyme, UniProt Q9Y2U5 1-619)
chain: MDDQQALNSIMQDLAVLHKASRPALSLQETRKAKSSSPKKQNDVRVKFEHRGEKRILQFPRPVKLEDLRSKAKIAFGQSMDLHYTNNELVIPLTTQDDLDKAVELLDRSIHMKSLKILLVINGSTQATNLEPLPSLEDLDNTVFGAERKKRLSIIGPTSRDRSSPPPGYIPDELHQVARNGSFTSINSEGEFIPESMDQMLDPLSLSSPENSGSGSCPSLDSPLDGESYPKSRMPRAQSYPDNHQEFSDYDNPIFEKFGKGGTYPRRYHVSYHHQEYNDGRKTFPRARRTQGTSLRSPVSFSPTDHSLSTSSGSSIFTPEYDDSRIRRRGSDIDNPTLTVMDISPPSRSPRAPTNWRLGKLLGQGAFGRVYLCYDVDTGRELAVKQVQFDPDSPETSKEVNALECEIQLLKNLLHERIVQYYGCLRDPQEKTLSIFMEYMPGGSIKDQLKAYGALTENVTRKYTRQILEGVHYLHSNMIVHRDIKGANILRDSTGNVKLGDFGASKRLQTICLSGTGMKSVTGTPYWMSPEVISGEGYGRKADIWSVACTVVEMLTEKPPWAEFEAMAAIFKIATQPTNPKLPPHVSDYTRDFLKRIFVEAKLRPSADELLRHMFVHYH
Consider B1, for which the values for the binding result with GFP-Lad1 (1–366) [2] and in the test with GFP-Lad1 (1–366) [3] were “binds weakly” and “binds”, respectively.

Values taken from PMC2935384.
